{"source": "paper PMC7070046", "binders": {"B1": {"name": "rRNA methyltransferase MRM2, endogenous (enzyme, UniProt Q9UI43 19-246)", "chain": "TVGSRCKNRTGAEHLWLTRHLRDPFVKAAKVESYRCRSAFKLLEVNERHQILRPGLRVLDCGAAPGAWSQVAVQKVNAAGTDPSSPVGFVLGVDLLHIFPLEGATFLCPADVTDPRTSQRILEVLPGRRADVILSDMAPNATGFRDLDHDRLISLCLTLLSVTPDILQPGGTFLCKTWAGSQSRRLQRRLTEEFQNVRIIKPEASRKESSEVYFLATQYHGRKGTVKQ"}}, "biological_target": "T1, His-GFP-SSSCA1 (SSSCA1 FL, residues A2-H199) (human) (UniProt O60232)", "T1 sequence": "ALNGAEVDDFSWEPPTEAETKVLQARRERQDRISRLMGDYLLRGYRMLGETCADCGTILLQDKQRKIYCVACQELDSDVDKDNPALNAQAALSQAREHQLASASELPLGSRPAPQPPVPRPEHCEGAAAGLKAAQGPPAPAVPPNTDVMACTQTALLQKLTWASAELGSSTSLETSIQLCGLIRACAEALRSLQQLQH", "assay": "affinity purification with mass spectrometry; tandem-affinity purification (His SpinTrap, then GFP-Trap A beads) of His-GFP-SSSCA1 from lysates of transfected HeLa, SW480 or LNCaP cells, 18 h after transfection; 50 mM HEPES pH 7.4, 150 mM NaCl, 5% glycerol, 0.5% NP40; gel slices, LC-MS/MS", "note": "No constants are given. Whether binding was seen depends on the method and setting. Binding seen in cells or lysates may run through a third protein. Here binding means that the protein was enriched with, or labelled near, the bait; the list need not be complete. Sequences can lack the tags named with a protein."}
{"binder": "B1", "values": [{"measurement": "binding", "value": "binds"}]}
